The other results are listed elsewhere or left out.
These compounds were tested on T1, CTL2-GFP (C. trachomatis L2/434/Bu, GFP-expressing). Conditions: bulk GFP, single well; 28.5 h, 10 µM; inhibitor.
T1 construct: L2/434/Bu, GFP-expressing
Parameters: species or system HeLa; Intracellular C. trachomatis growth in HeLa cells, bulk GFP fluorescence relative to DMSO

Row | Compound | % of control remaining [%]
1 | C[C@@H]1CN(C(=O)OCCc2cccs2)C[C@H](C)O1 [CBK200416] | 54.7335
2 | CN1CCN(C(=S)c2ccc(OCC(=O)Nc3cccc(C(F)(F)F)c3)cc2)CC1 [CBK266826] | 108.582
3 | O=C(O)c1[nH]c2ccccc2c1/C=N/Cc1ccccc1Cl [CBK294456] | 148.719
4 | CN(CCCC(=O)O)c1nc(-c2ccc(Br)cc2)cs1 [CBK299834] | 110.681
5 | Clc1ccc(OCc2nc3ccccc3n2CCOc2ccccc2)c(Cl)c1 [CBK264728] | 116.666
6 | COC(=O)c1ccc(/C=N/N=C2\NC(=O)C(CC(=O)Nc3ccccc3)S2)cc1 (centres unmarked) [CBK264483] | 137.661
7 | CC(=O)N1CCc2c(sc(NC(=O)c3ccc(N(C)C)cc3)c2C#N)C1 [CBK304333] | 114.206
8 | CS(=O)(=O)N1CC2(CCN(Cc3ccc(OC(F)(F)F)cc3)CC2)c2ccccc21 [CBK126668] | 94.8439
9 | COc1ccc2c(c1)C1(CC(=O)N(C)C1=O)C(=O)N2CCCC(=O)O (centres unmarked) [CBK076109] | 148.017
10 | COCCN(C)S(=O)(=O)c1cc(C)c(Cl)cc1C [CBK043867] | 117.462
11 | COc1ccc(S(=O)(=O)N(Cc2cc(F)cc(F)c2)C2CCNCC2)cc1 [CBK165292T] | 126.289
12 | O=C1NC2(CCc3ccccc31)CCN(Cc1ccncc1)C2 (centres unmarked) [CBK284610] | 109.161
13 | OCCN1CCN(CC(O)COCc2ccccc2)CC1 (centres unmarked) [CBK278262C] | 96.8384
14 | CC(C)Cc1ccc(-c2cc(NCCc3ccccn3)ncn2)cc1 [CBK091088] | 126.516
15 | O=C1/C(=N\Nc2ccc([N+](=O)[O-])cc2[N+](=O)[O-])c2cc(Br)ccc2N1CN1CCCCC1 [CBK260927] | 110.817
16 | O=C(O)c1ccc2c(c1)C(=O)N(CCCN1CCOCC1)C2=O [CBK269245] | 160.015
17 | CC(=O)N1CCN(C(=O)NC(C)C)C[C@@H]1C(=O)N[C@@H](CC1CCCCC1)C(N)=O [CBK289633] | 109.148
18 | O=C(NCCc1c[nH]cn1)N1CCN(Cc2ccccc2)CC1 [CBK155629] | 108.312
19 | O=C(c1ccc(-c2cncc(-c3ccc(O)cc3)n2)cc1Cl)N1CCOCC1 [CBK123790] | 96.2531
20 | CCC(CN1CCN(C)CC1)NC(=O)C1(c2cccc(F)c2)CC1 (centres unmarked) [CBK282786] | 89.4657
21 | COc1ccccc1-n1nc(-c2ccncc2)nc1C1CCOCC1 [CBK307229] | 95.5466
22 | O=C(O)c1ccc2c(c1)C(=O)N(c1cccc(/C=C/C(=O)c3cccc(N4C(=O)c5ccc(C(=O)O)cc5C4=O)c3)c1)C2=O [CBK261178] | 120.76
23 | CC(C)C(=O)Nc1ccc2[nH]cc(C(C(=O)O)N3CCN(c4ccccc4)CC3)c2c1 (centres unmarked) [CBK286645] | 120.653
24 | CN(CCN(C)C(=O)c1cc2sccc2[nH]1)CC(F)F [CBK306014] | 115.521
25 | O=C(Nc1ccc(F)cc1)c1cccc(NS(=O)(=O)c2cc(Br)c(Cl)s2)c1 [CBK050410] | 158.436
26 | CCOC(=O)c1[nH]c(=O)[nH]c1CSc1ccccn1 [CBK027725] | 124.482

Row | Compound | % of control remaining [%]
27 | CCOC(=O)c1[nH]c2ccccc2c1NC(=O)COc1ccc(Cl)cc1Cl [CBK160134] | 122.094
28 | Cc1ccc(NC(=O)CSc2cnn[nH]2)cc1 [CBK270136] | 116.819
29 | O=C1NCCNC(=O)C2(C/C=C/COc3ccccc31)CCCN(Cc1cscn1)C2 (centres unmarked) [CBK292125] | 110.203
30 | O=C(c1ccco1)N1CCC(c2onc3c2CCCCC3)CC1 [CBK284486] | 119.502
31 | CN1C[C@H](C(N)=O)[C@@H](c2ccc(CN(C)C(=O)c3cccc(Oc4ccccc4)c3)cc2)C1 [CBK285572] | 104.29
32 | COc1ccc(C(=O)N2CC[C@H]3CC(=O)N(CCN4CCNC4=O)CC[C@H]3C2)cc1 [CBK288795] | 116.475
33 | Cc1c(Cl)cccc1S(=O)(=O)NC1=NC(=O)C(CC(=O)Nc2ccccc2Cl)S1 (centres unmarked) [CBK200043] | 104.522
34 | CCn1cc(S(=O)(=O)N2CCN(c3cccc(C(F)(F)F)c3)CC2)cn1 [CBK270328] | 122.355
35 | O=C(CSc1ncnc2sc3c(c12)CCC3)Nc1nsc(-c2ccc(Cl)cc2)n1 [CBK266484] | 77.355
36 | CC(C)(CNC(=O)c1ccc(=O)n(CC(=O)NC2CCCCC2)c1)c1ccccc1F [CBK285983] | 132.859
37 | CN(C)c1nc(NCc2ccccc2)nc(SCC(=O)Nc2ccc(Cl)c(Cl)c2)n1 [CBK267289] | 113.696
38 | COc1ccc(CCNC(=O)N2CCCC(C(=O)O)C2)cc1 (centres unmarked) [CBK161367] | 139.65
39 | O=c1[nH]c2ncc(-c3ccoc3)nc2n1C1CCOCC1 [CBK064973] | 114.982
40 | CC(=O)Nc1ccc(C(=O)CSc2nc(-c3ccccc3)c(-c3ccccc3)o2)cc1 [CBK266168] | 144.722
41 | CCN(CC)Cc1cc(C(C)(C)C)oc1C(=O)O [CBK266013C] | 150.34
42 | CS(=O)(=O)Nc1cc2ccccc2c(-c2ccc(OCc3ccccc3)c(F)c2)n1 [CBK073785] | 70.9034
43 | CCCn1cc(C(=O)NCC2CCN(c3ccccc3F)C2)c(C)n1 (centres unmarked) [CBK304634] | 107.009
44 | Cc1ccc(NS(=O)(=O)c2ccc(OCC(=O)Nc3ccccc3C(F)(F)F)cc2)cc1 [CBK269120] | 156.896
45 | Nc1ncnc(NCCCN2CCOCC2)c1[N+](=O)[O-] [CBK267267] | 144.116
46 | NC(=O)C1CCN(C2CC(=O)NC2=O)CC1 (centres unmarked) [CBK263290] | 99.3225
47 | O=C(Nc1ccccc1)c1ccc(-c2ccccc2)cc1 [CBK261346] | 121.327
48 | Cc1nc2nc(N)nn2c(C)c1CCC(=O)NCCc1ccccc1 [CBK304989] | 111.827
49 | Cc1cc(C(=O)N(CCC#N)Cc2cccs2)no1 [CBK057316] | 98.0582
50 | Cc1ccc(N(CC(=O)NCC2CCCO2)S(C)(=O)=O)cc1 (centres unmarked) [CBK058709] | 118.546
51 | Fc1cccc(C2NC(=S)NC3=C2N2CCC3CC2)c1 (centres unmarked) [CBK288503] | 106.49
52 | Cc1nn(C)c(C(=O)NNC(=S)Nc2ccc(S(N)(=O)=O)cc2)c1Br [CBK266963] | 180.638

Some of these compounds in order of count of non-hydrogen atoms, smallest number first.
Row | Compound | % of control remaining [%]
46 | NC(=O)C1CCN(C2CC(=O)NC2=O)CC1 (centres unmarked) [CBK263290] | 99.3225
28 | Cc1ccc(NC(=O)CSc2cnn[nH]2)cc1 [CBK270136] | 116.819
41 | CCN(CC)Cc1cc(C(C)(C)C)oc1C(=O)O [CBK266013C] | 150.34
49 | Cc1cc(C(=O)N(CCC#N)Cc2cccs2)no1 [CBK057316] | 98.0582
51 | Fc1cccc(C2NC(=S)NC3=C2N2CCC3CC2)c1 (centres unmarked) [CBK288503] | 106.49
47 | O=C(Nc1ccccc1)c1ccc(-c2ccccc2)cc1 [CBK261346] | 121.327
50 | Cc1ccc(N(CC(=O)NCC2CCCO2)S(C)(=O)=O)cc1 (centres unmarked) [CBK058709] | 118.546
30 | O=C(c1ccco1)N1CCC(c2onc3c2CCCCC3)CC1 [CBK284486] | 119.502
43 | CCCn1cc(C(=O)NCC2CCN(c3ccccc3F)C2)c(C)n1 (centres unmarked) [CBK304634] | 107.009
34 | CCn1cc(S(=O)(=O)N2CCN(c3cccc(C(F)(F)F)c3)CC2)cn1 [CBK270328] | 122.355
27 | CCOC(=O)c1[nH]c2ccccc2c1NC(=O)COc1ccc(Cl)cc1Cl [CBK160134] | 122.094
35 | O=C(CSc1ncnc2sc3c(c12)CCC3)Nc1nsc(-c2ccc(Cl)cc2)n1 [CBK266484] | 77.355
32 | COc1ccc(C(=O)N2CC[C@H]3CC(=O)N(CCN4CCNC4=O)CC[C@H]3C2)cc1 [CBK288795] | 116.475
29 | O=C1NCCNC(=O)C2(C/C=C/COc3ccccc31)CCCN(Cc1cscn1)C2 (centres unmarked) [CBK292125] | 110.203
44 | Cc1ccc(NS(=O)(=O)c2ccc(OCC(=O)Nc3ccccc3C(F)(F)F)cc2)cc1 [CBK269120] | 156.896
31 | CN1C[C@H](C(N)=O)[C@@H](c2ccc(CN(C)C(=O)c3cccc(Oc4ccccc4)c3)cc2)C1 [CBK285572] | 104.29

2 records picked at random from the list so far:
Row | Compound | % of control remaining [%]
45 | Nc1ncnc(NCCCN2CCOCC2)c1[N+](=O)[O-] [CBK267267] | 144.116
21 | COc1ccccc1-n1nc(-c2ccncc2)nc1C1CCOCC1 [CBK307229] | 95.5466

(more compounds)

Row | Compound | % of control remaining [%]
53 | O=C(NCCc1cccs1)Nc1ccc(F)c(F)c1F [CBK044543] | 99.3961
54 | Cc1cc2ncn(CC(=O)NC3Cc4ccccc4C3)c2cc1C [CBK200261] | 109.904
55 | CCCCC(c1cccnc1)N(C)C(=O)c1cc(CC)[nH]c(=O)c1 (centres unmarked) [CBK307216] | 119.685
56 | CC(=O)N1CCc2nc(CC3CC3)nc(NCCn3ccnn3)c2CC1 [CBK306933] | 123.455
57 | Cc1ccc(-n2ncc3c(NCCc4ccc(S(N)(=O)=O)cc4)ncnc32)c(C)c1 [CBK265676] | 121.195
58 | CCC1CCCCN1C(=O)c1ccc(NC2CC2)nc1 (centres unmarked) [CBK304815] | 93.438
59 | CCCCc1ccc(S(=O)(=O)n2ccc3c(N4CCNCC4)cccc32)cc1 [CBK003744C] | 119.19
60 | CN1CCN(c2ccc(NC(=O)c3cc([N+](=O)[O-])ccc3N3CCOCC3)cc2)CC1 [CBK269425] | 157.97
61 | COC(=O)c1c(NC(=S)NCCn2cc(Br)cn2)sc2c1CCC2 [CBK266905] | 168.9
62 | CCOC(=O)CN(C)Cc1ccccc1Br [CBK261891] | 115.051
63 | O=C1c2ccccc2C(=O)N1CCCc1nc2c3c4c(sc3ncn2n1)CCCCC4 [CBK268540] | 140.475
64 | NC(=O)CN1CCC2(CCN(C(=O)c3cc(F)c(F)cc3F)C2)C1 (centres unmarked) [CBK132140] | 144.359
65 | O=P(O)(CCc1ccncc1)CN1CCCCC1 [CBK262323] | 100.721
66 | COC(=O)CCc1ccc(S(=O)(=O)N2CCCN(Cc3cccc4c3OCO4)CC2)cc1 [CBK062993] | 136.371
67 | CC(C)c1ccc(NC(=O)O[C@@H]2CO[C@H]3[C@@H]2OC[C@@H]3NC(=O)C2CC2)cc1 [CBK289471] | 128.316
68 | O=C(Nc1ccc(NC(=O)c2ccccc2O)cc1)c1cnc(-c2ccccc2)c(-c2ccncc2)c1 [CBK037490] | 91.655
69 | Cc1cc(C)n(-c2ccc(C(=O)NCC3(C)COC3)cc2)n1 [CBK281756] | 124.448
70 | Cc1cccc(OCCCn2cncc2-c2cnn(C)c2)c1 [CBK281763] | 145.637
71 | O=C(O)c1ccc(C(=O)NC2CCN(CC(F)(F)F)C2=O)s1 (centres unmarked) [CBK305524] | 135.9
72 | c1cn(CC2(Cn3ccnc3)COC2)cn1 [CBK021839] | 123.179
73 | CCNc1nc(-c2ccc3[nH]ccc3c2)cn2ccnc12 [CBK038002] | 139.746
74 | CC1CCN(S(=O)(=O)c2ccc(NC(=O)c3ccc(Br)o3)cc2)CC1 [CBK264536] | 113.845
75 | O=C(CSc1ncnc2ccccc12)Nc1nc2ccccc2s1 [CBK287510] | 115.904
76 | COc1ccc(C(=O)N2CCC3(CCCN(C(=O)Cn4cc(C)c(=O)[nH]c4=O)C3)C2)cc1OC (centres unmarked) [CBK137085] | 76.835
77 | CN1CCN(C(=O)C2CCN(S(=O)(=O)c3ccc4ccccc4c3)CC2)CC1 [CBK269504] | 164.141

Source: publication PMC12040169 (PLOS Biology, 2025)
